Source: PubChem BioAssay AID1259405 (NCATS, 2018)
Shown is one part, drawn at random, of about 50,000 reagents. Of all reagents, about 4,000 (8%) got an active call. 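Mouse siRNA library applied to hamster cells; one well for each siRNA.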 Unmarked entries are inactive. The numbers tell different reagents against one gene apart.

- Purpose: 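Mouse-designed siRNAs used to find CHO productivity engineering targets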 (primary screen)
- System: Chinese hamster CHO-K1 ovary cells with stable secreted eGFP expression
- Reagents: single siRNA against mouse genes, 0.8 pmol siRNA per well (2 µl of 400 nM stock)
- Duration: 3 days
- Detection: 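Percent of the per-plate non-targeting control median for intracellular GFP per well by laser scanning cytometry and for cell viability by ATP luminescence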
- Scale: GFP, % of control: higher = more GFP per well, higher productivity; viability (ATP), % of control: higher = more viable cells (more ATP)
- Rule for the call: 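a knock-down is called active if GFP reaches 120% or more of non-targeting control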

Slc22a19 #1: GFP, % of control = 85.2; viability (ATP), % of control = 43.9
Slc22a19 #2: GFP, % of control = 63.2; viability (ATP), % of control = 49.3
Slc22a19 #3: GFP, % of control = 69; viability (ATP), % of control = 91.7
Atg3 #1: GFP, % of control = 70.1; viability (ATP), % of control = 61.9
Atg3 #2: GFP, % of control = 32.7; viability (ATP), % of control = 33.7
Atg3 #3: GFP, % of control = 58.5; viability (ATP), % of control = 67
Vsig8 #1: GFP, % of control = 97.9; viability (ATP), % of control = 60.9
Vsig8 #2: GFP, % of control = 26.1; viability (ATP), % of control = 45.7
Vsig8 #3: GFP, % of control = 79.2; viability (ATP), % of control = 80.6
Pklr: GFP, % of control = 84.5; viability (ATP), % of control = 79.5
Chaf1a #1: GFP, % of control = 75.3; viability (ATP), % of control = 52.8
Chaf1a #2: GFP, % of control = 65.7; viability (ATP), % of control = 78.6
Chaf1a #3: GFP, % of control = 68.1; viability (ATP), % of control = 46.4
H4c9 #1: GFP, % of control = 75.6; viability (ATP), % of control = 80.4
H4c9 #2: GFP, % of control = 96.8; viability (ATP), % of control = 99.1
H4c9 #3: GFP, % of control = 51.4; viability (ATP), % of control = 76.7
Sars2 #1: GFP, % of control = 73.7; viability (ATP), % of control = 75.4
Sars2 #2: GFP, % of control = 99.7; viability (ATP), % of control = 96.8
Krt34 #1: GFP, % of control = 118; viability (ATP), % of control = 89.1
Krt34 #2: GFP, % of control = 45.6; viability (ATP), % of control = 69

Taken from above:
Result of Slc22a19 #3 under “GFP, % of control”: 69
Chaf1a #3, viability (ATP), % of control = 46.4
Entry for Sars2 #1 under “viability (ATP), % of control”: 75.4
Value for Chaf1a #2 under “GFP, % of control”: 65.7
Atg3 #3, GFP, % of control: 58.5
Entry for Vsig8 #1 under “GFP, % of control”: 97.9

Next results follow.
Cd200r1 #1: GFP, % of control = 99.7; viability (ATP), % of control = 86
Cd200r1 #2: GFP, % of control = 137 (active); viability (ATP), % of control = 65.1
Cd200r1 #3: GFP, % of control = 94.1; viability (ATP), % of control = 71.4
Clk2 #1: GFP, % of control = 151 (active); viability (ATP), % of control = 113
Clk2 #2: GFP, % of control = 58.4; viability (ATP), % of control = 65.3
Clk2 #3: GFP, % of control = 104; viability (ATP), % of control = 98.6
Lrrc42 #1: GFP, % of control = 87.4; viability (ATP), % of control = 65.9
Lrrc42 #2: GFP, % of control = 83.9; viability (ATP), % of control = 86.2
Lrrc42 #3: GFP, % of control = 78.2; viability (ATP), % of control = 84.1
Gphb5 #1: GFP, % of control = 98.2; viability (ATP), % of control = 75.3
Gphb5 #2: GFP, % of control = 129 (active); viability (ATP), % of control = 117
Gphb5 #3: GFP, % of control = 105; viability (ATP), % of control = 91.1
Col16a1 #1: GFP, % of control = 84.5; viability (ATP), % of control = 137
Col16a1 #2: GFP, % of control = 77.4; viability (ATP), % of control = 87.2
Teddm1a #1: GFP, % of control = 57.4; viability (ATP), % of control = 77.3
Teddm1a #2: GFP, % of control = 93.3; viability (ATP), % of control = 58.3
Teddm1a #3: GFP, % of control = 147 (active); viability (ATP), % of control = 84.1
Yaf2 #1: GFP, % of control = 96; viability (ATP), % of control = 35.1
Yaf2 #2: GFP, % of control = 107; viability (ATP), % of control = 89.9
Yaf2 #3: GFP, % of control = 85.2; viability (ATP), % of control = 107
Dok2 #1: GFP, % of control = 64.3; viability (ATP), % of control = 80.7
Dok2 #2: GFP, % of control = 77; viability (ATP), % of control = 75.3
Dok2 #3: GFP, % of control = 65.7; viability (ATP), % of control = 74.9
Csn1s2a #1: GFP, % of control = 62.5; viability (ATP), % of control = 63.3
Csn1s2a #2: GFP, % of control = 81.8; viability (ATP), % of control = 46.3
Csn1s2a #3: GFP, % of control = 85.9; viability (ATP), % of control = 99.4
Supt4a #1: GFP, % of control = 106; viability (ATP), % of control = 111
Supt4a #2: GFP, % of control = 127 (active); viability (ATP), % of control = 100
Ivns1abp #1: GFP, % of control = 49.7; viability (ATP), % of control = 58.9
Ivns1abp #2: GFP, % of control = 65.3; viability (ATP), % of control = 47.6
Ivns1abp #3: GFP, % of control = 62; viability (ATP), % of control = 57.7
Tcp11l2 #1: GFP, % of control = 94.4; viability (ATP), % of control = 105
Tcp11l2 #2: GFP, % of control = 60.9; viability (ATP), % of control = 68.3
Tcp11l2 #3: GFP, % of control = 106; viability (ATP), % of control = 38.2
